Source: patent US7598067B2, “PDEs and uses thereof” (priority 2000, dated 2009)

Test system: bloodstream form trypanosomes
Assay: Cytotoxicity / cell proliferation of bloodstream form trypanosomes, acid phosphatase assay
Type: cell-based, Trypanosoma brucei
Conditions: inhibition of cell proliferation, bloodstream forms in culture

Row | Compound | Hill slope of the dose-response curve
1 | OCCN(CCO)c1nc(N2CCCCC2)c2nc(N(CCO)CCO)nc(N3CCCCC3)c2n1 [Dipyridamole, dipyridamole] | 1.38±021 and 1.37±0.21
2 | CCOc1ccc(Cc2nccc3cc(OCC)c(OCC)cc23)cc1OCC [Ethaverine] | 5.19±1.52
3 | CCCc1nn(C)c2c(=O)[nH]c(-c3cc(S(=O)(=O)N4CCN(C)CC4)ccc3OCC)nc12 [Sildenafil, sildenafil] | 1.73±0.69
4 | COc1cc2c(cc1OC)-c1c/c(=N\c3c(C)cc(C)cc3C)n(C)c(=O)n1CC2 [Trequinsin] | 1.09±0.63

Several values for one entry are separate records, joined by “and”; a condition that tells them apart may be missing. Equal entries are not always repeated.
